Data on 37 targets can be found in the supplement of paper PMC11006884.

Protein sequences, listed by entry. Tags and fused reporters are not part of them. Lines headed by an entry give the natural chain unless they say otherwise; changes in a name come on top.
UniProt Q14204, whole entry, looked up: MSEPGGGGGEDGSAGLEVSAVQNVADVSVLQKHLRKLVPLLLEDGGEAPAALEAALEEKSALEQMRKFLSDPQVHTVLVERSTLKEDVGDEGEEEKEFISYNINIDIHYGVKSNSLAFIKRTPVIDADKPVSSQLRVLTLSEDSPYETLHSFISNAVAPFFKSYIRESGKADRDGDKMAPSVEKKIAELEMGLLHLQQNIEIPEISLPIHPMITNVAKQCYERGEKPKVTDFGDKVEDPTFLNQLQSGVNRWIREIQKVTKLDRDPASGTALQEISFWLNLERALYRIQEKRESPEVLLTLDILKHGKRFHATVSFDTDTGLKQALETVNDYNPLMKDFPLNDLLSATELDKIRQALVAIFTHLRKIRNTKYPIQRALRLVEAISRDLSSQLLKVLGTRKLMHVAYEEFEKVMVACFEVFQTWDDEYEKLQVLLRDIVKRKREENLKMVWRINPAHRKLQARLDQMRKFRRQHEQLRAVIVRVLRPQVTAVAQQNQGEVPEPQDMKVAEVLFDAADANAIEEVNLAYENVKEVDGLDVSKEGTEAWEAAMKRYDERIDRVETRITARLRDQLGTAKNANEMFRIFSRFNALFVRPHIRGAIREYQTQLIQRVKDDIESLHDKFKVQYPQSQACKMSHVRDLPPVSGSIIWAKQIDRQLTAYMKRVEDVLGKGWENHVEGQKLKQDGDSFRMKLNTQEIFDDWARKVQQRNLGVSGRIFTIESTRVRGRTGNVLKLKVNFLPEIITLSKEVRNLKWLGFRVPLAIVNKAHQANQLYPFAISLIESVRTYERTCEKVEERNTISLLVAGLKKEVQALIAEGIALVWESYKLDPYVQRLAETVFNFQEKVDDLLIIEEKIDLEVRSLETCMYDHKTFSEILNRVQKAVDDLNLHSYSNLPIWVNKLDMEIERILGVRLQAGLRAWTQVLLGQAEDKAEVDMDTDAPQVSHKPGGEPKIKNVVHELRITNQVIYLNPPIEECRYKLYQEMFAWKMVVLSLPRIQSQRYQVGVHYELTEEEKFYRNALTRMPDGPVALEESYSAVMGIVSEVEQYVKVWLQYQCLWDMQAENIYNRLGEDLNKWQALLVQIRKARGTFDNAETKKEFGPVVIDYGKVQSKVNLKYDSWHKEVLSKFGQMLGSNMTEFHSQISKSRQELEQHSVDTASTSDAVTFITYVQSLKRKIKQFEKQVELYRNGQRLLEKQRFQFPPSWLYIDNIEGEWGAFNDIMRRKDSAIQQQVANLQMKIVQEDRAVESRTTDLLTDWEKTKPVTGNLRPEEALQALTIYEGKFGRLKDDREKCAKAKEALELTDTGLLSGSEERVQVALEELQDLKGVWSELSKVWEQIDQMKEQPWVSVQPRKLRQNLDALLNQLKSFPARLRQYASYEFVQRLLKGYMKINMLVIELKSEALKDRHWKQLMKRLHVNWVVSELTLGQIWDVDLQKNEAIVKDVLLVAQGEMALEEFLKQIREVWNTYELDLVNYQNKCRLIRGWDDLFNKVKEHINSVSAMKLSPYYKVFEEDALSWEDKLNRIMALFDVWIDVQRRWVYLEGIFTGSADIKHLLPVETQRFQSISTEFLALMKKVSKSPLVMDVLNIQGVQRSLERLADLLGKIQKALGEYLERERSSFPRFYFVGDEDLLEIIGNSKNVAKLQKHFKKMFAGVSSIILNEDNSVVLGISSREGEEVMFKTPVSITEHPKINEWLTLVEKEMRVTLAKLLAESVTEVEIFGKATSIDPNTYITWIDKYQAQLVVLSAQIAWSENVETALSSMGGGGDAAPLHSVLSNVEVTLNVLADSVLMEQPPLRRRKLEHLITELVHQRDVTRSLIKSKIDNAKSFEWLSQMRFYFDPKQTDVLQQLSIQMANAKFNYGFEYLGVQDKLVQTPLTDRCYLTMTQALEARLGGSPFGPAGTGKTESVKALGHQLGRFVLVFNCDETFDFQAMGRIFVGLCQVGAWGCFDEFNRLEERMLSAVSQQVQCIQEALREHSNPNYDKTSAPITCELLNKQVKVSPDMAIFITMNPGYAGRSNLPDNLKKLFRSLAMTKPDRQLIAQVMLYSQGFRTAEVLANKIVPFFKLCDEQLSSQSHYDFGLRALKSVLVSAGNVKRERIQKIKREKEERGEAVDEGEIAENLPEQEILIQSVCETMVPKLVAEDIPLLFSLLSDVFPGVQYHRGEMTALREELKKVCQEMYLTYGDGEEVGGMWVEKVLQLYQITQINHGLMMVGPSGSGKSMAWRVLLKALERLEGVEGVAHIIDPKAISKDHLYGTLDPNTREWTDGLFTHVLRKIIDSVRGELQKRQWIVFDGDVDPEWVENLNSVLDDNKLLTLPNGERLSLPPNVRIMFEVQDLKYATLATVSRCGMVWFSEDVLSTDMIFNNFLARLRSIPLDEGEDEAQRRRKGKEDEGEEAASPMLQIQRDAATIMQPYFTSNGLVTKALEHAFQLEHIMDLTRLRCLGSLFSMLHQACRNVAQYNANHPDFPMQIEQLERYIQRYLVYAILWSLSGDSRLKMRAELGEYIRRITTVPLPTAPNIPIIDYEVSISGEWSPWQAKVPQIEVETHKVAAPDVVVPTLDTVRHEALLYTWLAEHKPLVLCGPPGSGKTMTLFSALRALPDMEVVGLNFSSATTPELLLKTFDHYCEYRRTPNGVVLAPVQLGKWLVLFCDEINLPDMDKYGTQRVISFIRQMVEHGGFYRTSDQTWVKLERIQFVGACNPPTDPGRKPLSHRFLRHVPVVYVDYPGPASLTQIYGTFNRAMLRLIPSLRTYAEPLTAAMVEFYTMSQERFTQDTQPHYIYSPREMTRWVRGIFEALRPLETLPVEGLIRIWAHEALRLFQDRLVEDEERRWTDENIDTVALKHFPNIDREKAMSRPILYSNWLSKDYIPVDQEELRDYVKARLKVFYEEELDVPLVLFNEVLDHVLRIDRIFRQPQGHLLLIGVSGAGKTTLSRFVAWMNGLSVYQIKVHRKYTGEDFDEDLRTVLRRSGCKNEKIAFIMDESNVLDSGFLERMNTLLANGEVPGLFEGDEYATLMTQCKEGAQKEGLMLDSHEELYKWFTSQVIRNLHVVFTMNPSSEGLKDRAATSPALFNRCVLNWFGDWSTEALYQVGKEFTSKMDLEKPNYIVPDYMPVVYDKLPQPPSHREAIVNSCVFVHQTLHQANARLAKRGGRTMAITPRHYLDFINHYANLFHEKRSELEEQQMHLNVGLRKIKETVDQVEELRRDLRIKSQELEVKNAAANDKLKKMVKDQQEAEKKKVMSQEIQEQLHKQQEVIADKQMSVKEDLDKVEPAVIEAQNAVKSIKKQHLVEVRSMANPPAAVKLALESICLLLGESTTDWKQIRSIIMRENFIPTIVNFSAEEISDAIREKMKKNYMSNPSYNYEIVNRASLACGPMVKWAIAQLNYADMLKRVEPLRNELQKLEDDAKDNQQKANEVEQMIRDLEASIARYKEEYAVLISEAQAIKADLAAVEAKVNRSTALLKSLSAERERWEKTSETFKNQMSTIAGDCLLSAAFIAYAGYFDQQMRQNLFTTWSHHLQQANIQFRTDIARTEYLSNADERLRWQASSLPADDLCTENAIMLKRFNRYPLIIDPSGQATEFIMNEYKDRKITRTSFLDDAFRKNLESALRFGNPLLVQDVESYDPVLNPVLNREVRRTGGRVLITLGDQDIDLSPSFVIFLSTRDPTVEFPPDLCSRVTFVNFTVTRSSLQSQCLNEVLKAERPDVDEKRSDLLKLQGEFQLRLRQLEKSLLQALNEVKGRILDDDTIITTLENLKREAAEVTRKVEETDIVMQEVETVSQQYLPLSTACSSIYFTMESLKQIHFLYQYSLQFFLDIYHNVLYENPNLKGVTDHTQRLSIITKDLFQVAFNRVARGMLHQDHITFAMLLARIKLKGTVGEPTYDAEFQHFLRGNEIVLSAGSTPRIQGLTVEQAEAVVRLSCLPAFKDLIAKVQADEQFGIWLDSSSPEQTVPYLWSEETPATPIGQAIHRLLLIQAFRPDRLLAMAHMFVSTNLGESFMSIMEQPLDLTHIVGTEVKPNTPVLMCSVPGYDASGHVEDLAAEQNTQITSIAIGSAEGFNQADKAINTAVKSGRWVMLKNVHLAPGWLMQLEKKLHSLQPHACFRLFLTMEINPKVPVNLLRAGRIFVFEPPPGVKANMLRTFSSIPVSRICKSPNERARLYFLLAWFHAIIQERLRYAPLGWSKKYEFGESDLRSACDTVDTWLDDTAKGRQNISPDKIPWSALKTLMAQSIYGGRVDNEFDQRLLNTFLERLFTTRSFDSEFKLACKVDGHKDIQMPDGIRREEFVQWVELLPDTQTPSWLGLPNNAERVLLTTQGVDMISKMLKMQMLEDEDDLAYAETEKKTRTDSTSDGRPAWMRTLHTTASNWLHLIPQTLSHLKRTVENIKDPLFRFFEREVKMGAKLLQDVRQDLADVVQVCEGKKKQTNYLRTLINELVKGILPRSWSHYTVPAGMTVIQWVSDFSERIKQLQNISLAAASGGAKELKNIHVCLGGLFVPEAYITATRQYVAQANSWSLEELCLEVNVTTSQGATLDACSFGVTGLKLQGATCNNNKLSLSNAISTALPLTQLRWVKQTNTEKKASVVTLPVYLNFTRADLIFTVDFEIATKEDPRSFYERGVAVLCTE
UniProt Q14694, whole entry, looked up: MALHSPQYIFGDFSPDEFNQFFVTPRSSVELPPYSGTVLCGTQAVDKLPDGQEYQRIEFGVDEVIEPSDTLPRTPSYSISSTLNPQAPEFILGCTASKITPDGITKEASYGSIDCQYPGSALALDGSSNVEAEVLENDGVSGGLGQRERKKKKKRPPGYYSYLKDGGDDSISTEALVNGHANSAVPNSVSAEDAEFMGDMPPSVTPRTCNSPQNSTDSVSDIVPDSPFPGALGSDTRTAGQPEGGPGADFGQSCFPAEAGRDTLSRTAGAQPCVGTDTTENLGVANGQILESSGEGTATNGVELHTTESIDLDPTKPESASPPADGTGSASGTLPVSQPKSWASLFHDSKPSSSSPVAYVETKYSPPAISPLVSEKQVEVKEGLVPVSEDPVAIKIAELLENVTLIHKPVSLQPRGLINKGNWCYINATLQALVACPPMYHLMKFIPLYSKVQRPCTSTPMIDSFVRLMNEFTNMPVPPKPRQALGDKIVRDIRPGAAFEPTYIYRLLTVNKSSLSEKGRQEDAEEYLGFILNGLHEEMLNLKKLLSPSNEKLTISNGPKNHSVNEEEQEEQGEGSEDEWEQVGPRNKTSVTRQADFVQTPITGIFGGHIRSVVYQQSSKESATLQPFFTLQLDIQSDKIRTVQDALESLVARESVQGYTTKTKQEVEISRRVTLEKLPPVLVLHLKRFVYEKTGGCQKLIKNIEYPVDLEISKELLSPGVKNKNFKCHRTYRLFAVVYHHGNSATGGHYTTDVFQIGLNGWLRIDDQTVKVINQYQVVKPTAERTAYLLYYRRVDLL
UniProt Q15003, whole entry, looked up: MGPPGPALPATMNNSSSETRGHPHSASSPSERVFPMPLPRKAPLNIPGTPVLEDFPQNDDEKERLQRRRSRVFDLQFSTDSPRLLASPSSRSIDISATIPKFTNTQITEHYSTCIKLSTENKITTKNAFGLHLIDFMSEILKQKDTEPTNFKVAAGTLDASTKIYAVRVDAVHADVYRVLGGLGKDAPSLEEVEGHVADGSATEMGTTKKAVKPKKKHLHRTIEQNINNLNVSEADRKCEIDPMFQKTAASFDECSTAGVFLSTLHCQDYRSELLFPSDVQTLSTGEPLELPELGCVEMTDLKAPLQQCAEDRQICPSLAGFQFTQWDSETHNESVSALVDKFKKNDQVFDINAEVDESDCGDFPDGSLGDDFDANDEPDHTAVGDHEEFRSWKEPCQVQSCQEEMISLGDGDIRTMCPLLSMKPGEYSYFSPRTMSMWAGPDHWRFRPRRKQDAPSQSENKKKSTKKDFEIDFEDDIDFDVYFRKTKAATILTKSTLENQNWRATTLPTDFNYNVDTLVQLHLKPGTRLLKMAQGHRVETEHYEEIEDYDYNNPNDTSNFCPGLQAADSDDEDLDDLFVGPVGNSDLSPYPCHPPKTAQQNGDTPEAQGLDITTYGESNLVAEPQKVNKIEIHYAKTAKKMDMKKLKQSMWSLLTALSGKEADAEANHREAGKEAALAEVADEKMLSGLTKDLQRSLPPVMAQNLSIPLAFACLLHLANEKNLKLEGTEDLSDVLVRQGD
UniProt Q14192: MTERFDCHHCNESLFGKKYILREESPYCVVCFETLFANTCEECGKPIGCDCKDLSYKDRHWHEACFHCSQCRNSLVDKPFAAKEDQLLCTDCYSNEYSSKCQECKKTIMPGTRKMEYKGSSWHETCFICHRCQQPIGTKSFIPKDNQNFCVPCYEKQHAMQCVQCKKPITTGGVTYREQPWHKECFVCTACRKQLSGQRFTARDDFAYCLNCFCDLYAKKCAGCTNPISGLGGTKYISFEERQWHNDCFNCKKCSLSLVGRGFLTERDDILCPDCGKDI

What follows is the remainder of the data, with few or none of the targets with a hit. Single values of this set are uncertain. This is a selection; strong and weak results do not stand in their true shares.

Compound in this assay: COC(=O)/C=C/c1ccccc1 [methyl cinnamate]
The assay can be described thus: log2 ratio of iodoacetamide-alkyne labeling of the cysteine site, DMSO over compound (competition); higher = stronger covalent engagement of the cysteine by the compound, active = 1 or more. The note with it: 500 µM; treatment time 1 h; system: HEK293T cell lysate. In outline: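 Three replicates, each with duplicate channels, were prepared from HEK293T lysate (2 mg/mL) treated with vehicle or electrophile at 500 µM for 1 h at ambient temperature. Iodoacetamide alkyne was then applied for 1 h, and samples were clicked to sCIP-TMT reagents, pooled, trypsin-digested overnight at 37 °C, enriched on streptavidin, acid-eluted and analysed on Orbitrap Eclipse LC-MS/MS with FAIMS, with FragPipe quantification. The log2 competition ratio per cysteine is the mean control-channel divided by the mean compound-channel reporter intensity. Cysteines quantified in only one replicate were left out.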
Take DYNC1H1 C4121 (UniProt Q14204): the “log2 ratio of iodoacetamide-alkyne labeling” value (from here on “log2 ratio”) is inactive: 0.0885. The same measure for DYNC1H1 C633 (UniProt Q14204): inactive: 0.315; for HLTF C461 (UniProt Q14527): inactive: 0.272. The value for FHL3 C153 (UniProt Q13643) was inactive: 0.0596. UBE4A C79 (UniProt Q14139): the “log2 ratio” value was inactive: 0.255. In the case of NUMA1 C1729 (UniProt Q14980), the “log2 ratio” value is inactive: 0.0494. In the case of SCRIB C22 (UniProt Q14160), the “log2 ratio” value was inactive: 0.227. Consider DIP2A C6 (UniProt Q14689), for which the “log2 ratio” value was inactive: 0.25. With SPTAN1 C315 (UniProt Q13813), the “log2 ratio” value was inactive: 0.131.

On to PUM1 C234 (UniProt Q14671), for which the “log2 ratio” value is inactive: 0.0227. With BMS1 C725 (UniProt Q14692), the “log2 ratio” value is inactive: 0.403. With USP10 C456 (UniProt Q14694), the “log2 ratio” value is inactive: 0.129.

On to TUBB3 C124 (UniProt Q13509), for which the “log2 ratio” value is inactive: 0.223. For SNW1 C250 (UniProt Q13573), the “log2 ratio” value is inactive: 0.123.

Turning to MAP7 C644 (UniProt Q14244), the “log2 ratio” value was inactive: 0.273. For the target NCAPH C255 (UniProt Q15003), the “log2 ratio” value was inactive: -0.0408. As to SART3 C472 (UniProt Q15020), the “log2 ratio” value was inactive: -0.0135. NUMA1 C1937 (UniProt Q14980): the “log2 ratio” value was inactive: 0.227. The value for NUMA1 C803 (UniProt Q14980) was inactive: 0.145; that for KPNB1 C436 (UniProt Q14974) was inactive: 0.169. In the case of ZMYM3 C1326 (UniProt Q14202), the “log2 ratio” value is inactive: 0.164. The value for FHL2 C132 (UniProt Q14192) was inactive: 0.202; that for FHL1 C7 (UniProt Q13642) was inactive: 0.0331.

In the case of BMS1 C317 (UniProt Q14692), the “log2 ratio” value is inactive: -0.0977. The same measure for CKAP5 C1203 (UniProt Q14008): inactive: 0.125; for NUMA1 C1907 (UniProt Q14980): inactive: 0.197. Regarding UniProt Q14197_C82, the “log2 ratio” value is inactive: 0.0622. For the target GAMT C16 (UniProt Q14353), the “log2 ratio” value was inactive: 0.123. The value for DYNC1H1 C2142 (UniProt Q14204) was inactive: 0.442; that for UBE4A C710 (UniProt Q14139) was inactive: -0.103; that for DYNC1H1 C1888 (UniProt Q14204) was inactive: 0.11. The value for CKAP5 C1113 (UniProt Q14008) was inactive: 0.333; that for GAPVD1 C1160 (UniProt Q14C86) was inactive: -0.113. Turning to NCAPH C418 (UniProt Q15003), the “log2 ratio” value is inactive: 0.0364. The same measure for TRIP12 C35 (UniProt Q14669): inactive: 0.0685; for CKAP5 C1026 (UniProt Q14008): inactive: 0.0818.

Turning to DCTN2 C240 (UniProt Q13561), the “log2 ratio” value is inactive: 0.262.
